The results in this text go back to PMC10517016, “SCARB2 drives hepatocellular carcinoma tumor initiating cells via enhanced MYC transcriptional activity” (Nature Communications, 2023).

Sequences of proteins named here, by UniProt entry; tags and fusion partners are left off.
UniProt O15379: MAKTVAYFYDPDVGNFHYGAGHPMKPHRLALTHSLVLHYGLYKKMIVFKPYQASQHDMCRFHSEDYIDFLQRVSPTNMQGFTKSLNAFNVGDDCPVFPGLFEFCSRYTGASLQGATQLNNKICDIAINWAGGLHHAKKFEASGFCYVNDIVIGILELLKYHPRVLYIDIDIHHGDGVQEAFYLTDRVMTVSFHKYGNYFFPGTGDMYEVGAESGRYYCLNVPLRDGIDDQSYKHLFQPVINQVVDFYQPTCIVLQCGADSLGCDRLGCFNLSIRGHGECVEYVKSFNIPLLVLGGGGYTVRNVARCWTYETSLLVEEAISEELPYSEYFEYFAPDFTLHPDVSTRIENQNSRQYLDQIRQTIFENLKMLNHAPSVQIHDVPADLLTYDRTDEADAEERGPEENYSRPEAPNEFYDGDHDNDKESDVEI

Results are given in words; binding and its absence hold for the method and conditions named. Binding seen in cells or lysates may run through a third protein. Here binding means that the protein was enriched with, or labelled near, the bait; the list need not be complete.

This experiment has as its target T1, Scavenger receptor class B member 2 (SCARB2), endogenous (human (endogenous in HCCLM3)) (UniProt Q14108).
T1 sequence: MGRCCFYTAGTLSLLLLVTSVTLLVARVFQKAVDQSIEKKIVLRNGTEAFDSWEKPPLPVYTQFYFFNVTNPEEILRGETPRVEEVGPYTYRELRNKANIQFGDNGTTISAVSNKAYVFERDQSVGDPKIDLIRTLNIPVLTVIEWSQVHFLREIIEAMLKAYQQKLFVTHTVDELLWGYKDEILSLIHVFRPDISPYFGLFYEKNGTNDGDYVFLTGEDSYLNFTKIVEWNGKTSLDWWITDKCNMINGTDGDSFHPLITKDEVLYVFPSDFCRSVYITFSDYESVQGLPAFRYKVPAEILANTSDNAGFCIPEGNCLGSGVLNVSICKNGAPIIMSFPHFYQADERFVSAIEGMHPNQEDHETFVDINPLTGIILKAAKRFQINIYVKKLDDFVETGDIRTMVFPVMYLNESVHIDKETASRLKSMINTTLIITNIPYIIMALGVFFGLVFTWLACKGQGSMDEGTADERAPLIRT
As to the kind of experiment: affinity purification with mass spectrometry; whole-cell lysates of HCCLM3 cells, IP with anti-SCARB2 antibody or IgG1 isotype control and Protein A/G agarose overnight at 4 °C, quantitative MS.

As for “HDAC3 (endogenous) (from UniProt O15379 1-428) (enzyme)”, the binding entry is “binds”.

As for “MYC (endogenous, wild type) (from UniProt P01106-2 1-454)”, the binding result is listed as “binds”.
